The list shows a part of the results.
Tests used:
Experiment in all cases: NMR binding call after quantification (hit when 2 of 3 NMR criteria are met) (binary (1 = binding, 0 = not binding)); higher = binding
Conditions in all cases: RNA concentration 10 µM; fragment concentration 200 µM; 293 K
SARS-CoV-2 5'-UTR RNA = tested on: SARS-CoV-2 5'-UTR RNA
SARS-CoV-2 5_SL1 RNA = tested on: SARS-CoV-2 5_SL1 RNA
SARS-CoV-2 5_SL1234 RNA = tested on: SARS-CoV-2 5_SL1234 RNA
SARS-CoV-2 5_SL2+3 RNA = tested on: SARS-CoV-2 5_SL2+3 RNA
SARS-CoV-2 5_SL4 RNA = tested on: SARS-CoV-2 5_SL4 RNA
SARS-CoV-2 5_SL5 RNA = tested on: SARS-CoV-2 5_SL5 RNA
SARS-CoV-2 5_SL5a RNA = tested on: SARS-CoV-2 5_SL5a RNA
SARS-CoV-2 5_SL5b+c RNA = tested on: SARS-CoV-2 5_SL5b+c RNA
SARS-CoV-2 5_SL5stem RNA = tested on: SARS-CoV-2 5_SL5stem RNA
SARS-CoV-2 5_SL6 RNA = tested on: SARS-CoV-2 5_SL6 RNA

Measured: NMR binding call

CC(C)Nc1nc2ccccc2[nH]1
0: all assays above

CNS(=O)(=O)c1ccccc1Cl
0: all assays above

O=C(NCc1ccco1)Nc1ccc(F)cc1
0: all assays above

Nc1ccc(S(=O)(=O)Nc2ccccn2)cc1
0: all assays above

OCC1CCN(c2ncccn2)CC1
0: all assays above

CC(C)c1ccc(CN2CCC(O)CC2)cc1
0: all assays above

CC(c1ccccc1F)N1CCNCC1.Cl.Cl (stereo not given)
0: all assays above

CCn1ccc(CNC)n1
0: all assays above

Cc1cc(C(=O)NCC2CCCO2)ns1 (stereo not given)
0: all assays above

CC(=O)Nc1cccc(F)c1C(=O)O
0: all assays above

CC(C)NC(=O)CN1CCCNCC1
0: all assays above

CC(=O)NC(C)(C(=O)O)C1CC1 (stereo not given)
0: all assays above

NC(=O)N1CCN(C(=O)c2ccco2)CC1
0: all assays above

CC(C)c1nnc(NCC(C)(C)C)s1
0: all assays above

O=C(Cc1ccccc1)N1CCc2ccccc21
0: all assays above

CC(C)(O)CN1CCC(N)C1 (stereo not given)
0: all assays above

O=C(c1ccco1)N1CCN(C(=O)C2CC2)CC1
0: all assays above

CC(C(N)=O)N1CCN(S(C)(=O)=O)CC1 (stereo not given)
0: all assays above

CCN1N=C(C(F)(F)F)CC1=O
0: all assays above

COC(=O)CNC(=O)C1CCCCC1
0: all assays above

O=C(Nc1ccc(Cl)cc1)Nn1cnnc1
0: all assays above

CC(C)c1ccc(C(=O)Nc2nncs2)cc1
1: SARS-CoV-2 5_SL5 RNA
0: all other assays above

Cc1cc(F)ccc1CS(N)(=O)=O
0: all assays above

COc1ccc(CNC(=O)CC#N)cc1
0: all assays above

CC(C)N(C)c1ncnc2c1cnn2C
0: all assays above

CC1COCCN1CCN (stereo not given)
0: all assays above

COCC(=O)NCc1nc2ccccc2[nH]1
0: all assays above

c1cnc(NC2CCCCCC2)nc1
0: all assays above

CCOc1ccc(NC(=O)NC(C)(C)C)cc1
0: all assays above

CS(=O)(=O)N1CCCC(C(=O)O)C1 (stereo not given)
0: all assays above

COc1cccc(C(N)CC(=O)O)c1 (stereo not given)
0: all assays above

Fc1cccc(CNCc2ccco2)c1
0: all assays above

Cl.O=C(O)CCN1CCCCC1
0: all assays above

O=C(Nc1nnc[nH]1)c1cccnc1Cl
0: all assays above

CC(=O)N(C)c1ccccc1C(=O)O
0: all assays above

Clc1snnc1CN1CCOCC1
0: all assays above

CC(=O)Nc1ccc(Nc2ccccc2)cc1
0: all assays above

CC(O)CNCc1ccc2c(c1)OCO2 (stereo not given)
0: all assays above

Oc1ccccc1CN1CCOCC1
0: all assays above

COc1cccc(C(=O)Nc2ccccc2F)c1
0: all assays above

CN(C)C(=O)CNc1ccccc1
0: all assays above

Clc1cccc(CN2CCOCC2)c1
0: all assays above

CCOc1ccc(CC(=O)O)cc1
0: all assays above

Cc1cccc(C(=O)Nc2ccc(C)cc2O)c1
0: all assays above

CNC(=O)c1ccc(CS(C)(=O)=O)cc1
0: all assays above

CC(C)c1ncc(Cl)c(C(N)=O)n1
0: all assays above

CCc1ncc(CNC)s1
0: all assays above

CN(C)c1ccncc1
0: all assays above

CC(=O)N1CCCC(C(N)=O)C1 (stereo not given)
0: all assays above

Cc1cc(C(=O)NC(C)C)on1
0: all assays above

Cn1nc(C(N)=O)c2ccccc21
0: all assays above

CNc1ccccc1S(C)(=O)=O
0: all assays above

CC(C)(CO)NC(=O)c1cccc(Cl)c1
0: all assays above

Cc1nc(C(=O)N2CCCC2)c(C)s1
0: all assays above

O=C(Nc1ccc(N2CCOCC2)cc1)C1CC1
0: all assays above

O=C(NCC1CC1)Nc1ccc2c(c1)CCO2
0: all assays above

CC(=O)Nc1ccc(C)c2c1CCCN2
0: all assays above

COCC(=O)Nc1c(C)cc(C)cc1C
0: all assays above

NC(=O)N1CCN(c2ccc(F)cc2)CC1
0: all assays above

COc1ccc(C)cc1NC(=O)Nn1cnnc1
0: all assays above

CC(=O)N1CCC(C#N)CC1
0: all assays above

CC1CN(C(=O)c2cnsn2)C(C)CO1 (stereo not given)
0: all assays above

Cc1cccc(NC(=O)CN2CCOCC2)c1C
0: all assays above

Cn1cc(Cl)c(C(=O)NC2CCCC2)n1
0: all assays above

CC(C)n1cnc(S(N)(=O)=O)c1
0: all assays above

Cc1ccccc1OCC(=O)Nc1ccccc1
1: SARS-CoV-2 5_SL5 RNA
0: all other assays above

CS(=O)(=O)Nc1ccc(-c2ccccc2)cc1
0: all assays above

CC(=O)Nc1ccccc1CC(=O)O
0: all assays above

Cl.NC(=O)c1ccc2c(c1)CCN2
0: all assays above

CC(C)C(=O)Nc1nnn(C)n1
0: all assays above

Some of these compounds in order of SMILES length, ascending:
CN(C)c1ccncc1
0: all assays above

Cn1nc(C(N)=O)c2ccccc21
0: all assays above

Cc1ccccc1OCC(=O)Nc1ccccc1
1: SARS-CoV-2 5_SL5 RNA
0: all other assays above

O=C(NCc1ccco1)Nc1ccc(F)cc1
0: all assays above

CC(C(N)=O)N1CCN(S(C)(=O)=O)CC1 (stereo not given)
0: all assays above

Following part

CCC(=O)Nc1cccc(N)c1C
0: all assays above

Cc1sc2ncnc(N(C)C)c2c1C
1: SARS-CoV-2 5'-UTR RNA | SARS-CoV-2 5_SL5 RNA
0: all other assays above

COCC(=O)Nc1ccccc1
0: all assays above

CCOC(=O)Nc1cccc(Cl)c1
0: all assays above

Fc1ccc(CNCC2CCCO2)cc1 (stereo not given)
0: all assays above

O=C(O)c1ccccc1OC(F)(F)F
0: all assays above

CC(N)c1ccc(N2CCOCC2)cc1 (stereo not given)
0: all assays above

c1nc(N2CCC2)c2[nH]cnc2n1
1: SARS-CoV-2 5'-UTR RNA
0: all other assays above

Cc1cccc(NC(=O)C2CCCN2)n1 (stereo not given)
0: all assays above

CC(=O)NCCc1ccccc1C
0: all assays above

CC(=O)N1CC(O)CC1C(=O)O (stereo not given)
0: all assays above

CS(=O)(=O)Cc1nc2ccccc2[nH]1
0: all assays above

CCC(=O)Nc1ccc(N2CCC(C)CC2)cc1
0: all assays above

CCS(=O)(=O)Nc1ccccc1F
0: all assays above

CS(=O)(=O)N1CCC(C(=O)NC2CC2)CC1
0: all assays above

Cc1cc(C(=O)Nc2ccn(C)n2)on1
0: all assays above

CC(C)c1ccc(NC(=O)N2CCOCC2)cc1
0: all assays above

CC(C)NC(=O)N(C)Cc1cnn(C)c1
0: all assays above

CC(C)(C)C1CCN(C(=O)c2ccccc2)CC1
0: all assays above

COCC(=O)NCc1ccc(C)cc1
0: all assays above

CCn1cc(C(=O)NCc2ccc(F)cc2)cn1
0: all assays above

Cc1csc(CNC(=O)c2cc[nH]n2)n1
0: all assays above

CC(C)c1nccn1CC(=O)O
0: all assays above

CN(C)C(=O)c1ccc(F)cc1Br
0: all assays above

CC1=NN(c2ccccc2)C(=O)C1
0: all assays above

CC(C)N1CCCC(CO)C1 (stereo not given)
0: all assays above

CN1CCC(Oc2cccc(F)c2)C1=O (stereo not given)
0: all assays above

CNC(=O)CNc1ncnc2sccc12
0: all assays above

CC1CNCCN1CCO (stereo not given)
0: all assays above

CNC(C)c1sc(C)nc1C (stereo not given)
0: all assays above

Cl.NC1CCN(S(=O)(=O)c2ccccc2)C1 (stereo not given)
0: all assays above

CC1(C)CN(C(=O)CC(F)(F)F)CCO1
0: all assays above

N#CCC(=O)N1CCC(C(N)=O)CC1
0: all assays above

CCOC(=O)c1cc(-c2ccc(C)cc2)no1
0: all assays above
